This note sets out measurements from PubChem BioAssay AID493014 (National Center for Advancing Translational Sciences (NCATS), 2011).

The other results are listed elsewhere or left out. These are further read-outs of the screen, such as a control signal, another cell line or another target. No call is given for them. The list favours compounds with an active or inconclusive main result. Words in brackets tell the shape of the fitted curve; partial curves, single points and poor fits give uncertain potencies.

The test is described as follows: qHTS Assay to Find Inhibitors of Chronic Active B-Cell Receptor Signaling. Conditions: ABC-DLBCL IkBa-CBG/CBR reporter, luminescence ratio (green luciferase fused to IkBa over red control in TMD8 lymphoma cells), 4 h. Put shortly: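 TMD8 human ABC-DLBCL cells with doxycycline-inducible IκBα–green luciferase fusion and unfused red luciferase, in 0.5% FBS medium; compounds up to 46 uM, 4 h at 37C. Green/red luminescence ratio, filter-overlap corrected, fitted to concentration-response curves.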

[1] abbreviates: measured here: CBR red luminescence, cell number.
The mark [2] stands for this setting: measured here: IkBa-CBG green luminescence.

`CCc1ccc(S(=O)(=O)/N=C2\C=C(NS(=O)(=O)c3ccccc3)C(=O)c3ccccc32)cc1`: under setting [1], the concentration at half-maximal activity (AC50) is 7.08 µM [falling, partial curve, poor fit]. In the case of `Cc1cccc(NC(=O)c2cc(NC(=O)c3ccco3)ccc2Cl)n1`, the half-maximal activity concentration (AC50) under setting [2] is 10.3 µM [falling, partial curve, poor fit]. On to `CCC(=O)c1cn(CC(=O)Nc2cccc(C)c2)c2ccccc12`, for which the half-maximal activity concentration (AC50) under setting [1] is 14.1 µM [rising, single point].

As to `CCOC(=O)N1CCC(N2CCCC(CO)(Cc3cccc(Cl)c3)C2)CC1` (configuration not stated), under setting [1], the AC50 was 35.5 µM [falling, single point]. The same measure, in the same setting: with `C=CCNC(=O)c1cc2cccc(OC)c2oc1=O` the figure was 11.2 µM [falling, partial curve]. Consider `O=c1oc2ccccc2c(O)c1C=Nc1cccnc1`, for which, under setting [1], the half-maximal activity concentration (AC50) was 8.91 µM [falling, partial curve]. Still for that read-out and setting: with `Cc1ccccc1NC(=O)CSC1=C(C#N)C(c2ccsc2)CC(=O)N1` (configuration not stated) the figure was 16.4 µM [falling, partial curve, poor fit]; with `O=C(Nc1nccs1)c1cc(-c2ccncc2)nc2ccccc12`, 0.708 µM [falling, full curve].

Consider `COc1ccc(-c2noc(CN3CCOCC3)n2)cc1OC`, for which the AC50 under setting [1] was 18.4 µM [falling, partial curve, poor fit]. With `COc1cc(Cl)ccc1OCc1cc(C(=O)N2CCCCCCC2)no1`, the AC50 under setting [1] is 2 µM [rising, partial curve, poor fit]. On to `O=[N+]([O-])C1C(c2ccccc2)=NOC1c1ccccc1O` (configuration not stated), for which, under setting [1], the AC50 was 7.08 µM [falling, partial curve]. `C=CCn1c(Cc2cccc3ccccc23)n[nH]c1=S`: the AC50 under setting [2] was 29.1 µM [falling, single point].

For `COC(=O)COC(=O)c1ccc(-n2nnnc2SC)cc1`, under setting [1], the AC50 is 32.6 µM [falling, single point]. For `Cc1ccc(S(=O)(=O)N/N=C\c2ccc([N+](=O)[O-])o2)cc1`, under setting [1], the AC50 was 20.6 µM [rising, single point]. Consider `Cc1nc2ccc(C(=O)O)cc2[nH]1`, for which the AC50 under setting [1] was 18.4 µM [falling, single point]. The same measure, in the same setting: the value for `COc1cc(C(=O)N/N=C/c2cn(Cc3cccc(F)c3)c3ccccc23)ccc1O` was 11.2 µM [falling, partial curve]; that for `O=S(=O)(Cc1cc(Cl)nc(-c2ccncc2)n1)c1ccccc1` was 0.631 µM [falling, full curve, poor fit]; that for `Cc1ncc(CN2CCCC(C(=O)Nc3ccc(-c4cscn4)cc3)C2)cn1` (configuration not stated) was 7.08 µM [falling, partial curve]. Take `CCCn1c(SCC(=O)N(C)CC(=O)Nc2ccc(C)cc2)n[nH]c1=O`: the AC50 under setting [1] is 29.1 µM [rising, single point]. Regarding `COc1ccc(CN2C(=O)CN=C2Nc2cc(C)ccc2C)cc1`, the AC50 under setting [1] was 3.66 µM [rising, single point]. Take `CNC(=O)c1ccc(Nc2nnc(-c3ccc(O)cc3)c3ccccc23)cc1`: the concentration at half-maximal activity (AC50) under setting [1] was 20 µM [falling, single point].

Regarding `COc1cccc(OC)c1C(=O)N1CCN(Cc2ccccc2C(F)(F)F)CC1`, the AC50 under setting [1] was 18.4 µM [falling, partial curve, poor fit]. Still for that read-out and setting: with `CCC(=O)c1ccc(OCc2ccc(C(=O)OC)cc2)c(OC)c1` the figure was 6.31 µM [falling, single point]. For the compound `Cc1ccc(NCN2C(=O)C3CC=CCC3C2=O)cc1` (configuration not stated), the half-maximal activity concentration (AC50) under setting [1] was 29.1 µM [rising, single point]. On to `CSc1cccc(NC(=S)N(CCCN2CCCC2)Cc2cccn2Cc2ccc(Cl)cc2)c1`, for which the AC50 under setting [1] was 0.562 µM [falling, full curve]. In the case of `O=C(COc1cccc(Br)c1)Nc1ccc(Cl)c(S(=O)(=O)N2CCOCC2)c1`, the AC50 under setting [1] is 32.6 µM [falling, single point].

On to `CCn1nc(C)c(CNC(=O)c2cc(COc3ccc(F)cc3Cl)on2)c1C`, for which the concentration at half-maximal activity (AC50) under setting [1] was 0.447 µM [rising, full curve, poor fit]. Regarding `Cc1cccc(-n2c(=O)[nH]c3c(C(N)=O)nc(C(C)C)nc32)c1`, the AC50 under setting [1] is 8.2 µM [rising, partial curve, poor fit].

As for `Cc1cccc(C)c1NC(=O)CSc1nc2ccccc2c(=O)[nH]1`, the AC50 under setting [1] was 0.259 µM [rising, full curve, poor fit]. On to `CC(C)n1cnc2c(NCc3ccccc3)nc(NCc3ccccc3)nc21`, for which the AC50 under setting [1] is 17.8 µM [falling, single point].

On to `COC(=O)c1cc(C)sc1NC(=O)CCCC(=O)O`, for which, under setting [1], the AC50 is 25.9 µM [rising, partial curve, poor fit]. On to `Cc1ccc(OCc2ccc(C(=O)Nc3ccc(C(N)=O)cc3)o2)c([N+](=O)[O-])c1`, for which the AC50 under setting [1] was 2.82 µM [rising, partial curve, poor fit]. On to `COCC(=O)NNC(=O)Cc1ccc(Cl)cc1`, for which the half-maximal activity concentration (AC50) under setting [1] is 35.5 µM [rising, single point]. On to `O=C(COC(=O)c1cc(S(=O)(=O)N2CCCCC2)ccc1N1CCOCC1)c1ccccc1`, for which, under setting [1], the AC50 was 5.8 µM [rising, single point].

As for `Cn1c(NNC(=O)C(c2ccccc2)c2ccccc2)cc(=O)n(C)c1=O`, under setting [1], the concentration at half-maximal activity (AC50) is 10 µM [falling, partial curve, poor fit]. In the case of `c1ccc(-c2cc(-c3ccccc3)n3ncnc3n2)cc1`, the AC50 under setting [1] was 10 µM [falling, partial curve, poor fit]. As for `COC(OC)c1nc(SCC(=O)Nc2cccc(Cl)c2)ncc1C(=O)O`, the AC50 under setting [1] was 35.5 µM [falling, single point]. Still for that read-out and setting: with `COCC(=O)Nc1nc2n(n1)C(c1ccc(OC)cc1)CC(c1ccc(OC)cc1)N2` (configuration not stated) the figure was 23.1 µM [falling, single point]. Regarding `CC(C)=CCC/C(C)=C/CNC(=O)C[C@H]1C[C@H](C(=O)N2CCCCC2)[C@@]2(C)c3[nH]c4ccc(Cl)cc4c3CCN2C1=O`, the half-maximal activity concentration (AC50) under setting [1] is 6.51 µM [rising, partial curve, poor fit] and the half-maximal activity concentration (AC50) under setting [2] was 20.6 µM [falling, single point]. For `Cc1ccc(NC(=O)C2COc3ccccc3O2)nc1` (configuration not stated), the AC50 under setting [1] was 0.461 µM [rising, full curve]. In the case of `CCOC(=O)C1CCCN(C(=O)/C=C/c2ccccc2[N+](=O)[O-])C1` (configuration not stated), the AC50 under setting [1] is 6.51 µM [falling, single point].

As for `CC(=O)Nc1cccc(C(=O)/C=C/c2ccc(F)cc2)c1`, the AC50 under setting [1] is 10 µM [falling, partial curve]. In the case of `O=C1c2cccc3cccc(c23)C(=O)N1c1ccccc1Cl`, the AC50 under setting [2] was 8.91 µM [falling, partial curve, poor fit]. Consider `Cc1nc(N(C)Cc2ccccc2)c2c(C)c(C)sc2n1`, for which, under setting [1], the AC50 was 20 µM [rising, partial curve, poor fit]. Consider `CNC(=S)N/N=C(\C)c1ccc2c(c1)OCO2`, for which the AC50 under setting [2] is 35.5 µM [falling, single point].

As to `CCO[C@@H]1OC(C(=O)NCc2ccccc2)=C[C@H](C(C)(C)C)[C@H]1CCCO`, under setting [1], the AC50 is 5.62 µM [rising, single point].

On to `O=C1C=C(Nc2ccccc2C(=O)O)c2ccccc2C1=O`, for which the AC50 under setting [1] was 17.8 µM [falling, single point]. As for `O=Cc1cccc(OCc2cccc3ccccc23)c1`, the concentration at half-maximal activity (AC50) was 22.4 µM [rising, partial curve, poor fit] under setting [1] and 35.5 µM [falling, single point] under setting [2]. `Cc1ccc(NC(=O)CC2SCCNC2=O)cc1Cl` (configuration not stated): the concentration at half-maximal activity (AC50) under setting [1] was 14.6 µM [rising, partial curve, poor fit].

In the case of `CCOc1ccccc1NC(=O)Nc1cccc(NC(C)=O)c1`, the half-maximal activity concentration (AC50) under setting [1] was 3.16 µM [falling, partial curve].

Consider `O=c1c2cc([N+](=O)[O-])cc([N+](=O)[O-])c2[nH]n1-c1ccccc1`, for which the AC50 under setting [1] is 7.08 µM [falling, partial curve, poor fit]. For the compound `COc1ccc(CNC(=O)C(=O)c2cn(CC(=O)N3CCOCC3)c3ccccc23)cc1`, the half-maximal activity concentration (AC50) under setting [1] is 7.94 µM [falling, partial curve]. With `Cc1cccc(OCCCC(=O)Nc2ccc(N(C)C)cc2)c1`, the half-maximal activity concentration (AC50) under setting [1] was 9.2 µM [rising, partial curve, poor fit]. For the compound `CCN(C(=O)CN1C(=O)S/C(=C\c2cccc(Cl)c2)C1=O)C1CCS(=O)(=O)C1` (configuration not stated), under setting [1], the AC50 was 31.6 µM [falling, partial curve, poor fit]. For the compound `O=C(COc1ccc2c3c(c(=O)oc2c1)CCC3)Nc1ccccn1`, the AC50 under setting [1] is 11.2 µM [rising, partial curve, poor fit].

Take `CCc1ccc(OCC(=O)NC(NC(=S)Nc2ccc(C)cc2C)C(Cl)(Cl)Cl)cc1` (configuration not stated): the AC50 under setting [1] was 35.5 µM [falling, single point]. Take `O=C1C=C(c2cc3ccccc3s2)C[C@@H](c2ccc(F)cc2)C1`: the AC50 under setting [1] was 8.2 µM [rising, partial curve]. As for `Cc1ccc(-c2oc3ncnc(N)c3c2-c2ccc(C)cc2)cc1`, the half-maximal activity concentration (AC50) under setting [1] was 3.26 µM [falling, partial curve, poor fit] and the half-maximal activity concentration (AC50) under setting [2] is 6.51 µM [falling, partial curve, poor fit]. Regarding `Nc1ccc(C(=O)Nc2nc3ccccc3s2)cc1`, under setting [1], the AC50 was 2.91 µM [falling, full curve]. For the compound `Cc1ccccc1OCC(=O)N(Cc1cccc(F)c1)C1CCS(=O)(=O)C1` (configuration not stated), the AC50 under setting [1] was 7.94 µM [falling, partial curve, poor fit]. Same read-out and setting: with `CNc1nc(SCc2ccccc2)nc(N2CCOCC2)n1` the figure was 7.31 µM [falling, partial curve]. Consider `COc1cccc(-c2cc(=O)c3cc(NC(=O)c4ccc(N(C)C)cc4)ccc3[nH]2)c1`, for which the AC50 under setting [1] was 1.64 µM [rising, full curve] and the AC50 under setting [2] was 1.64 µM [falling, full curve].

Take `S=c1[nH]nc(Cc2sc(-c3ccccc3)nc2-c2ccccc2)o1`: the AC50 under setting [2] is 16.4 µM [rising, partial curve, poor fit].

A word on the AC50: it is the concentration giving half of the maximal activity seen.
